Reference: US4719200A, “Amino acid derivatives and antihypertensive drugs containing the same” (Ajinomoto Co., Inc., priority 1984, dated 1988)
At least one read-out could not be matched to a standard name with certainty. Square brackets hold non-standard residues; d marks the D form. Peptide text beside a SMILES is read from it. * marks the point of attachment. pGlu = O=C1CC[C@@H](C(=O)O)N1; PhAc = O=C(Cc1ccccc1)*; Boc = CC(C)(C)OC(=O)*; Propionyl = CCC(=O)*; Bz = O=C(c1ccccc1)*

Tested on: spontaneously hypertensive rates (SHR rats)
Assay: Measurement of change in blood pressure (systolic, indirect, conscious rats) after one oral dose
Format: in vivo, rat
Conditions: single force-feeding into the stomach, 0.05 m mole/kg
Procedure: The antihypertensive activities of the amino acid derivatives as prepared above were determined.
As subject animals, there were used 5 spontaneously hypertensive rates (SHR rats) which had been sufficiently trained and confirmed to be hypertensive (mode, the body weight of 400 g) per a sample.
As an instrument for measuring the blood pressure there was used Programmed Electro-Sphygmomanometer PE-300 (Narco Co., U.S.A.), and the blood pressure was indirectly measured on conscious rats.
An aqueous solution of a sample (0.05 m mole/kg) was once force-fed into the stomach by means of a […] probe. As a control, the water as deionized was fed to the same animals as above.

| SMILES | Hours after administration (of lowest systolic blood pressure value) |
| --- | --- |
| CC(=O)N[C@@H](C)C(=O)N1CCC[C@H]1C(=O)N1CCC[C@H]1C(=O)O [Example 3, N-acetyl-L-alanyl-L-prolyl-L-proline] (Ac-Ala-Pro-Pro-OH) | 8 h |
| C[C@H](NC(=O)c1ccccc1)C(=O)N1CCC[C@H]1C(=O)N1CCC[C@H]1C(=O)O [Example 13, N-benzoyl-L-alanyl-L-prolyl-L-proline] (Bz-Ala-Pro-Pro-OH) | 8 h |
| C[C@H](NC(=O)OC(C)(C)C)C(=O)N1CCC[C@H]1C(=O)N1CCC[C@H]1C(=O)O [Example 16, N-t-butyloxycarbonyl-L-alanyl-L-prolyl-L-proline] (Boc-Ala-Pro-Pro-OH) | 8 h |
| CCOC(=O)N[C@@H](C)C(=O)N1CCC[C@H]1C(=O)N1CCC[C@H]1C(=O)O [Example 1, N-ethoxycarbonyl-L-alanyl-L-prolyl-L-proline] | 8 h |
| C[C@H](NC(=O)c1cccs1)C(=O)N1CCC[C@H]1C(=O)N1CCC[C@H]1C(=O)O [Example 6, N-(2-thenoyl)-L-alanyl-L-prolyl-L-proline] | 8 h |
| C[C@H](NC(=O)c1ccco1)C(=O)N1CCC[C@H]1C(=O)N1CCC[C@H]1C(=O)O [Example 7, N-(2-furoyl)-L-alanyl-L-prolyl-L-proline] | 8 h |
| C[C@H](NC(=O)Cc1ccccc1)C(=O)N1CCC[C@H]1C(=O)N1CCC[C@H]1C(=O)O [Example 14, N-phenylacetyl-L-alanyl-L-prolyl-L-proline] (PhAc-Ala-Pro-Pro-OH) | 8 h |
| CCC(=O)N[C@@H](C)C(=O)N1CCC[C@H]1C(=O)N1CCC[C@H]1C(=O)O [Example 4, N-propionyl-L-alanyl-L-prolyl-L-proline] (Propionyl-Ala-Pro-Pro-OH) | 8 h |
| C[C@H](NC(=O)c1ccccn1)C(=O)N1CCC[C@H]1C(=O)N1CCC[C@H]1C(=O)O [Example 5, N-picolinoyl-L-alanyl-L-prolyl-L-proline] | 8 h |
| C[C@H](NC(=O)[C@@H]1CCC(=O)N1)C(=O)N1CCC[C@H]1C(=O)N1CCC[C@H]1C(=O)O [Example 21, L-pyroglutamyl-L-alanyl-L-prolyl-L-proline] ([pGlu]APP-OH) | 8 h |
